# The supplement of paper PMC3334620
# The full ranking holds about 33,000 sequences; the median of “E-score (-0.5 to 0.5)” is about -0.0034, and the highest 2% start at about 0.25. Some of the results follow.
# Target: T1, Yap3 (UniProt P38749)
# T1 sequence: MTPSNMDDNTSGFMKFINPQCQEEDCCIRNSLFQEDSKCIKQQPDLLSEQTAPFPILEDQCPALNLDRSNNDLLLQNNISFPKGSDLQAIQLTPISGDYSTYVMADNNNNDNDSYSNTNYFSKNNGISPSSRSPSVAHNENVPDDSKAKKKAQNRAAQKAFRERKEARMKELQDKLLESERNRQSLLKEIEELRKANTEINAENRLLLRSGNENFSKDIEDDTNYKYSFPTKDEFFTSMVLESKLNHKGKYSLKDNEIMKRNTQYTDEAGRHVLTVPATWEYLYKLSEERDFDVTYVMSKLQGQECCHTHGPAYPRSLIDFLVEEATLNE
# Assay: PBM E-score (8-mer binding enrichment) (E-score (-0.5 to 0.5)); higher = stronger / more preferred TF binding
# Details: protein concentration: 100 nM; construct: GST-full length
# Outline: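 E-scores (a modified Wilcoxon-Mann-Whitney statistic) were assigned by the Universal PBM Analysis Suite to every ungapped eight-base word pooled with its reverse complement. The input came from universal all-10-mer Agilent arrays made double-stranded by primer extension and probed with GST-tagged yeast transcription factors at about 100-200 nM. Fluorescent anti-GST detected bound protein, and masliner normalised the scans.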
row,Sequence,PBM E-score
1,GTGGGAAA,0.118
2,CAACGACC,0.0111
3,CCGATTCA,-0.0345
4,AGGACCCC,-0.197
5,CGGGCCCA,-0.341
6,CCGCAAAA,0.076
7,ATTAGACC,-0.176
8,CCGGGTAC,-0.22
9,CTCACCCA,-0.0382
10,ACCTCTTG,-0.188
11,TAGCACGA,-0.0214
12,CTACACTC,-0.135
13,TGCTACCA,-0.129
14,AACCCGAA,-0.0324
15,ATTTGCGG,0.0995
16,CCGATGCC,-0.0142
17,TAGCGAGA,-0.0444
18,AATCGAAG,0.256
19,ATGGCTGA,-0.0094
20,CGCCGGAC,-0.191
21,CAATCCTG,0.0137
22,CACTCCGG,-0.00027
23,AGACCCGA,0.023
24,CCGCGTCA,-0.161
25,AACCCTCT,-0.239

row,Sequence,PBM E-score
1,AGCCTAGC,-0.091
2,TACTAGTA,0.127
3,AATTATCG,0.267
4,TGCGCACA,0.0919
5,ATATTACC,0.276
6,GAGGTCCC,-0.281
7,CAGCCGCC,-0.177
8,ACTAGAGC,0.0444
9,ACATAGGA,-0.0244
10,GCTCTCGA,-0.113
11,GAGTTCGA,0.123
12,AATCGGGG,-0.146
13,CGCGGGGC,-0.197
14,GCTAGCAA,-0.061
15,AGAAGAAA,0.0399
16,AATATAGC,0.133
17,GCTAACTA,0.172
18,AGTACGAG,0.0722
19,CGACTTAG,-0.0491
20,AACGGCGT,0.0396
21,GAGTTTAC,-0.103
22,ACTCCAGT,0.0145
23,CTACTGTC,0.134
24,ACCAAACG,-0.0718
25,ACTAACAT,0.242

row,Sequence,PBM E-score
1,GCCCCTTA,-0.145
2,ACTCTTCG,-0.028
3,GCCCTAAA,-0.249
4,CCATTTCA,-0.0292
5,AGCAGATG,-0.0141
6,CGTGACAC,0.0299
7,TATAGAGA,-0.0187
8,CGCGACTC,-0.0858
9,AAAGCGGG,-0.0861
10,AATCGAAA,0.0602
11,CTCATGTA,0.0517
12,GCAACGAC,-0.0831
13,GAGACCAC,-0.0698
14,CGATCGGA,-0.0721
15,AGTTTGTA,0.0697
16,CCGACTCA,-0.03
17,CAAGAGTA,0.0601
18,GACCTACC,-0.2
19,ATTTGAAG,-0.0122
20,CGATTACG,0.181
21,ATATCGAC,0.218
22,CGTATTCA,0.134
23,AGGTTGAT,-0.169
24,ATACCAGC,-0.0358
25,CCGTTAAC,0.00505

row,Sequence,PBM E-score
1,GGGCCGCA,-0.247
2,AGTCCCAG,-0.189
3,AAAAAATT,0.0987
4,CACCAGGG,-0.224
5,ACCAAGCT,0.132
6,CATGTTGG,-0.0821
7,GGCAATCA,0.147
8,ACGAGTAT,0.0978
9,AGTTGGAC,0.037
10,CTCCTTGA,-0.104
11,ACTGCTGA,-0.00706
12,AACGCGCA,0.103
13,ACAAACCA,0.0141
14,AAATGAAG,0.205
15,CTAAGCCA,-0.235
16,ATAATAAC,0.173
17,ACTCCACG,-0.121
18,CTGAGTAA,0.246
19,ATACCCTG,-0.0024
20,AGATCAAA,0.0085
21,AGAATAAG,0.11
22,CCTGTAGA,0.0297
23,GCCATCTA,-0.0168
24,CCAGATAA,0.0371
25,GGCATTTA,-0.0673

row,Sequence,PBM E-score
1,AAGGTGGG,-0.193
2,AACCTAAC,-0.00525
3,TGCCCAAA,-0.236
4,ATTCGCCC,-0.0869
5,CAACCGGC,-0.0724
6,ATTAGCTA,0.15
7,ATAGCGCC,0.0505
8,CAAGCAGA,0.0726
9,ATGTGTAC,0.00561
10,AGCACTAC,-0.088
11,ATGAGCTG,-0.0855
12,AAGTGCCT,-0.238
13,ACCCTGCG,-0.0961
14,CCAGACGC,-0.104
15,CAACTAAC,0.246
16,ACGCGTGG,-0.0187
17,CCTATGGA,-0.0335
18,GCGGAGGA,-0.215
19,AAACGGAA,0.263
20,CCTGGTGC,-0.102
21,ATGCTCGG,0.0894
22,TTAGTCAA,0.27
23,AGGTCAGA,-0.144
24,CGTTGTCA,0.0756
25,AAACGTCT,-0.0679

# Pulled one by one from the list above (4):
row,Sequence,PBM E-score
21,ATATCGAC,0.218
17,CAAGAGTA,0.0601
10,AATCGAAA,0.0602
18,GCGGAGGA,-0.215

# Following part:

row,Sequence,PBM E-score
1,AAGTGGAT,-0.171
2,CTCCCGGC,-0.17
3,CGGGTGGC,-0.289
4,CCGTGACA,-0.0217
5,AGGCTTTG,-0.126
6,GTATCTGA,0.133
7,AGGTCATG,-0.136
8,GATCTGTA,0.102
9,AGCTTAAT,0.13
10,CTCTGCTC,-0.117
11,CCTTGTCC,0.0247
12,TACGTGGA,0.045
13,AGTCAGCA,-0.0413
14,ACAGGGGA,-0.191
15,CGTTGAAG,-0.0864
16,GCGAGTAC,0.141
17,ATACTTGC,0.148
18,CCTCTAGA,-0.00835
19,CAACTGTC,-0.0969
20,ATACTTCC,0.0777
21,CCGAGGCC,-0.185
22,CGATCTGC,0.0136
23,GCGAGGTA,-0.0952
24,GTCGATGA,-0.0348
25,GACTGGGC,-0.246

# Rewritten tab-delimited: part of the list above
row	Sequence	PBM E-score
4	CCGTGACA	-0.0217
6	GTATCTGA	0.133
11	CCTTGTCC	0.0247
13	AGTCAGCA	-0.0413
15	CGTTGAAG	-0.0864
21	CCGAGGCC	-0.185
25	GACTGGGC	-0.246

# Additional records

row,Sequence,PBM E-score
1,ACGTGGGG,-0.169
2,ATACGAGA,-0.119
3,GAATACTC,-0.0585
4,ACTCGGGG,-0.161
5,CGGCAAAC,0.0461
6,ACATCGCT,0.0617
7,GGACTGTA,-0.0642
8,AATGCGGT,-0.139
9,CCTCCAGA,-0.18
10,AGGCAGAT,-0.00338
11,AGGTTCCA,-0.0733
12,CGTTTTAG,-0.0422
13,GGACCACA,-0.0509
14,GCTCAGGA,-0.0894
15,AAAGTGTT,0.177
16,ACGAAGTA,-0.0215
17,AATATGTA,0.222
18,AGGTTCGC,-0.248
19,ACGACAGG,0.0227
20,ACTCCGCC,-0.124
21,ACTCACCC,-0.0428
22,TAGAACGA,0.0804
